Experimental data taken from the supplement of paper PMC7858590.
± gives the standard deviation of the averaged measurements. The full ranking holds about 3,800 compounds; the median of “cell shape (eccentricity) Z-score vs DMSO control” is about 1.1, and the lowest 2% start at about -4.7. The list shows a part of the results.

Test system: human monocyte-derived macrophages (M0)
Experiment: cell shape (eccentricity) Z-score vs DMSO control; higher = more elongated, M2-like morphology
Settings: 20 µM; 24 h; macrophage state: M0 (M-CSF)

Compound | cell shape (Z-score)
Oc1ccc2c(c1O)OCC1c3cc4c(cc3OC21)OCO4 (stereo unspecified) | 6.06
O=C(NCCCN1CCCCCC1)C(c1ccccc1)C1CCCCC1 (stereo unspecified) | 1.44
Fc1cc(-c2cccc3ncc(-c4cnn(C5CCNCC5)c4)nc23)cc(F)c1CN1CCOCC1 | 4.2
CC(C)CCOC(=O)c1ccc(N(C)C)cc1 | 0.629
COc1cc2c(cc1O)C(=O)CC1C(C)(C)C(=O)CCC21C (stereo unspecified) | 1.43
CCOC(=O)CSCCC1NC(C(=O)O)CS1 (stereo unspecified) | -0.811
O[C@@H]1[C@@H](O)[C@H](OC/C=C/c2ccccc2)O[C@H](CO[C@@H]2OC[C@H](O)[C@H](O)[C@H]2O)[C@H]1O | 1.13 ± 0.51
NS(=O)(=O)c1ccc(N2CCN(CC[C@@H]3OCCc4ccccc43)CC2)cc1 | -0.418
CCCC[C@@H](C)/C=C(C)/C=C(\C)C(=O)NC1=C[C@@](O)(/C=C/C=C/C=C/C(=O)NC2C(=O)CCC2=O)[C@@H]2O[C@@H]2C1=O | 0.108
O=C(O)C1C(=CCO)OC2CC(=O)N21 (stereo unspecified) | 0.00862
CC(C)n1cnc2c(NCCc3ccc(O)cc3)nc(-c3csc4ccccc34)nc21 | 7.21
O=C(NCCCCN1CCOCC1)c1cc2ccccc2o1 | -0.102
COc1c2c(c(C)c3c1C(=O)OC3)OC1(C)CC(O)C3(O)C(C)(C)OC(=O)CCC3(C)C1C2 (stereo unspecified) | 1.19
CCS(=O)(=O)N(C)[C@H]1c2cc(C#N)ccc2OC(C)(C)[C@@H]1O | 0.869
O=C(NCCN1CCCCC1)c1ccc(I)cc1 | 7.59
CCN(CC)C(=O)c1ccc(O)c(OC)c1 | -0.468
COC(=O)C=Cc1cc(O)ccc1O | -1.27
CNC(=O)c1cc2c(cn1)[nH]c1ccccc12 | 0.782
COC(=O)c1cc(O)cc(OC)c1Oc1c(Cl)c(C)c(Cl)c(O)c1C(=O)O | 1.39
C[C@@H]1O[C@@H](O[C@@H]2[C@@H](O)[C@H](Oc3c(-c4ccc(O)cc4)oc4cc(O)cc(O)c4c3=O)O[C@H](CO)[C@H]2O)[C@H](O)[C@H](O)[C@H]1O | 0.71
C[C@]12CCC(=O)C=C1CCC1C2[C@@H](O)C[C@@]2(C)C1CC[C@]2(O)C(=O)COC(=O)CCC(=O)O (stereo partly specified) | -1.19
C=CCc1cccc(/C=N/NC(=O)CN2CCN(Cc3ccccc3)CC2)c1O | -0.15
CCCCCCCCN1C(=O)C(C(C)=O)=C(C)C1(C)O (stereo unspecified) | 2.73

Compound | cell shape (Z-score)
CCCc1nc(C)c2c(=O)[nH]c(-c3cc(S(=O)(=O)N4CCN(CC)CC4)ccc3OCC)nn12 | 2.12
O=C(O)C[C@H](O)C[C@H](O)/C=C/c1c(C2CC2)nc2ccccc2c1-c1ccc(F)cc1 | 7.49
CCN1CCCC(OC(=O)C(c2ccccc2)c2ccccc2)C1 (stereo unspecified) | 1.7
N[C@@H](Cc1cc(I)c(Oc2cc(I)c(O)c(I)c2)c(I)c1)C(=O)O | 1.99
CC(C(=O)O)c1ccc(C(=O)c2cccs2)cc1 (stereo unspecified) | 1.76
COc1ccc([C@@H]2Sc3ccccc3NC(=O)[C@@H]2O)cc1 | 1.73
CCCOc1ccc2[nH]c(NC(=O)OC)nc2c1 | -1.59
CC(CCC(=O)NCC(=O)O)C1CCC2C3CCC4CC(O)CCC4(C)C3CC(O)C12C (stereo unspecified) | 4.22
CNc1ccccc1C(=O)OC1OC(C)C(O)C(O)C1O (stereo unspecified) | -2.09
CCCc1c(C(=O)O)c(O)cc2c1C(=O)c1c(O)cccc1C2=O | 2.8
COc1cc(SC)ccc1C(=O)N1CCC(Cc2ccccc2)CC1 | 2.8
COC(=O)C1=C(C)NC(C)=C([N+](=O)[O-])[C@@H]1c1ccccc1C(F)(F)F | 0.903
COC(=O)C1=CO[C@@H](O[C@@H]2O[C@H](CO)[C@@H](O)[C@H](O)[C@H]2O)C2C1CC(O)C2C (stereo partly specified) | 2.67
CC(=O)OC(C[C@@]1(C)[C@H](C)[C@H](OC(C)=O)C[C@@]23COC(=O)C2=CCC[C@@H]31)c1ccoc1 (stereo partly specified) | 3.03
CCn1c(=O)c2c(nc(C=Cc3ccc(OC)c(OC)c3)n2C)n(CC)c1=O | 2.33
CS(=O)(=O)N1CCN(Cc2cc3nc(-c4cccc5[nH]ncc45)nc(N4CCOCC4)c3s2)CC1 | -3.32
C[C@]1(c2nc3c(C(N)=O)cccc3[nH]2)CCCN1 | 3.49
O=C(CCc1ccc(O)cc1)CC(CCc1ccc(O)cc1)O[C@@H]1O[C@H](CO)[C@@H](O)[C@H](O)[C@H]1O (stereo partly specified) | -3.05
CCCOc1ccccc1-c1nc2[nH]nnc2c(=O)[nH]1 | 1.55
C[C@H](CCC(=O)O)[C@H]1CCC2[C@@H]3CC[C@@H]4C[C@H](O)CC[C@]4(C)C3C=C[C@@]21C (stereo partly specified) | -2.01
CC1OC(OCC2OC(Oc3c(-c4ccc(O)c(O)c4)oc4cc(O)cc(O)c4c3=O)C(O)C(O)C2O)C(O)C(O)C1O (stereo unspecified) | 0.225
CC(=O)OCC(Cc1ccccc1)NC(=O)C(Cc1ccccc1)NC(=O)c1ccccc1 (stereo unspecified) | 0.368
O=C(CCCN1CCN(c2ccccn2)CC1)c1ccc(F)cc1 | 1.5

Single entries from above.
cell shape (Z-score) with CCCc1c(C(=O)O)c(O)cc2c1C(=O)c1c(O)cccc1C2=O reads 2.8
cell shape (Z-score) with O=C(CCCN1CCN(c2ccccn2)CC1)c1ccc(F)cc1 reads 1.5

Following part

Compound | cell shape (Z-score)
COc1cc(-c2ccc(=O)[nH]n2)ccc1OC(F)F | 6.73
CC(C)Cc1ccc(C(C)C(=O)O)cc1 (stereo unspecified) | 0.485
COc1cc(NS(=O)(=O)c2ccc(N)cc2)ncn1 | 1.52
CC(C)(Oc1ccc(Cl)cc1)C(=O)OCCOC(=O)c1cccnc1 | -0.543
CC(C)=CCc1c(O)cc(O)c2c(=O)cc(-c3ccc(O)cc3)oc12 | 0.624
Cc1cc(NC(=O)C2C(=O)c3ccccc3S(=O)(=O)N2C)no1 (stereo unspecified) | 6.33
CN(C(=O)CN(CCO)CC(=O)N(C)C(C)(C)Cc1ccccc1)C(C)(C)Cc1ccccc1 | 0.879
CC1=CC(=O)CC2[C@@]1(C)CC[C@@H](C)[C@]2(C)CCC(C)CC(=O)O (stereo partly specified) | -1.95
Cc1nc(-c2ccc(OCC(C)C)c(C#N)c2)sc1C(=O)O | 0.295
CN(Cc1ccccc1)Cc1ccccc1 | -0.715
C/C(=C\CC[C@@H](C)[C@H]1CC[C@@]2(C)C3CC[C@H]4C(C)(C)[C@@H](OC5OC(CO)C(OC6OC(CO)C(O)C(O)C6O)C(O)C5O)CC[C@@]45C[C@@]35CC(O)[C@]12C)C(=O)O (stereo partly specified) | 0.155
Oc1cccc(-c2nc(N3CCOCC3)c3oc4ncccc4c3n2)c1 | 5.34
O=C(c1ccc(OCCN2CCCCC2)cc1)c1c(-c2ccc(O)cc2)sc2cc(O)ccc12 | 0.689
COc1cc2c(cc1OC)-c1cc3ccc(OC)c(OC)c3c[n+]1CC2 | 0.786
CCCCCc1c2c(cc(O)c1C(=O)O)OC(=O)c1c(cc(OC)cc1C(=O)CCCC)O2 | 5.03
O=c1oc(-c2ccc(C(F)(F)F)cc2)nn1Cc1cc(Cl)ccc1O | 1.08
C[C@@H]1O[C@@H](Oc2cc(O)c3c(=O)c(O[C@@H]4O[C@@H](C)[C@H](O[C@@H]5O[C@@H](C)[C@H](O)[C@@H](O)[C@H]5O)[C@@H](O)[C@H]4O)c(-c4ccc(O)cc4)oc3c2)[C@H](O)[C@H](O)[C@H]1O | 6.14
COc1cc(OC)c2c(c1)OC(c1ccccc1)CC2=O (stereo unspecified) | 3.11
C=C(C(=O)O[C@H]1CC=C(C)C[C@H](O)[C@H]2[C@H](C)C(=O)O[C@@H]2/C=C/1C)[C@@H]1CCC(=C)[C@@H]2C[C@H](O[C@@H]3O[C@H](CO[C@H]4OC[C@](O)(CO)[C@H]4O)[C@@H](O)[C@H](O)[C@H]3O)C(=C)[C@@H]2C1 | -4.65
CC(C)(CO)C(O)C(=O)NCCC(=O)NCCSSCCNC(=O)CCNC(=O)C(O)C(C)(C)CO (stereo unspecified) | 1.73
CC1(C)CC[C@@]2(C(=O)O)C(C1)C1=CCC3[C@@]4(C)CC[C@H](O[C@@H]5O[C@H](C(=O)O)[C@@H](O[C@@H]6OC[C@@H](O)[C@H](O)[C@H]6O)[C@H](O)[C@H]5O)C(C)(C)C4CC[C@@]3(C)[C@]1(C)C[C@H]2O (stereo partly specified) | 0.257
Cc1c(O)cc2c(c1O)C(=O)CC(c1ccc(O)cc1)O2 (stereo unspecified) | -2.24
COc1cc(-c2coc3cc(OCc4ccccc4)c(OC)c(O)c3c2=O)cc(O)c1OC | 0.701

Sorted by SMILES length (largest number first): some entries from above
Compound | cell shape (Z-score)
C/C(=C\CC[C@@H](C)[C@H]1CC[C@@]2(C)C3CC[C@H]4C(C)(C)[C@@H](OC5OC(CO)C(OC6OC(CO)C(O)C(O)C6O)C(O)C5O)CC[C@@]45C[C@@]35CC(O)[C@]12C)C(=O)O (stereo partly specified) | 0.155
CN(C(=O)CN(CCO)CC(=O)N(C)C(C)(C)Cc1ccccc1)C(C)(C)Cc1ccccc1 | 0.879
COc1cc(-c2ccc(=O)[nH]n2)ccc1OC(F)F | 6.73
CC(C)Cc1ccc(C(C)C(=O)O)cc1 (stereo unspecified) | 0.485

The listing continues.

Compound | cell shape (Z-score)
CC1(C)CC[C@]2(C(=O)O[C@@H]3OC[C@H](O[C@@H]4OC[C@H](O)[C@H](O)[C@H]4O)[C@H](O)[C@H]3O)CC[C@]3(C)C(=CCC4[C@@]5(C)C[C@H](O)[C@H](O[C@@H]6O[C@H](C(=O)O)[C@@H](O)[C@H](O[C@@H]7OC[C@H](O)[C@H](O)[C@H]7O)[C@H]6O)[C@@](C)(CO)C5CC[C@]43C)[C@@H]2C1 (stereo partly specified) | -3.31
CCOC(=O)Nc1nc2ccccc2[nH]1 | 0.525
O=C(O)c1cc([N+](=O)[O-])ccc1NCCCc1ccccc1 | 4.91
CS(=O)(=O)c1ccc(C(O)[C@H](CF)NC(=O)C(Cl)Cl)cc1 (stereo partly specified) | 0.775
Nc1nc(Nc2ccccc2)nc2c1ncn2C1OC(CO)C(O)C1O (stereo unspecified) | 7.34
CC(=O)Nc1ccc(OC(=O)c2ccccc2O)cc1 | 2.47
Cc1ccc(F)c(NC(=O)Nc2ccc(-c3cccc4[nH]nc(N)c34)cc2)c1 | -2.2
C[C@@H]1CC[C@]2(C(=O)OC3OC(CO)C(OC4OC(CO)C(O)C(O)C4O)C(O)C3O)CC[C@]3(C)C(=CCC4[C@@]5(C)CC[C@H](O)[C@](C)(C(=O)O)C5CC[C@]43C)C2[C@]1(C)O (stereo partly specified) | 0.609
OCc1ccccc1O[C@@H]1O[C@H](CO)[C@@H](O)[C@H](O)[C@H]1O | 2.23
COc1cc(OC)c(NC(=O)Nc2cc(C)on2)cc1Cl | 1.96
COc1cc(OC)c2ccc(=O)oc2c1 | 1.58
c1cnc(N2CCN(Cc3ccc4c(c3)OCO4)CC2)nc1 | 0.297
NC(=O)Cc1ccc(O)c(Cl)c1 | 0.222
O=C(O)c1ccccc1Nc1ccccc1 | 2.81
CCN(CCCCOC(=O)c1ccc(OC)c(OC)c1)C(C)Cc1ccc(OC)cc1 (stereo unspecified) | -3.63
CCCCCCOc1ccccc1C(N)=O | 7.11
CC(=O)c1cc2ccccc2oc1=O | 3.02
O=c1cc(-c2ccccc2)oc2cc(O)ccc12 | 4.41
CCN(CC)CCNC(=O)c1ccc(N)cc1 | 0.846
CC(=O)NC(Cc1ccccc1)C(=O)O (stereo unspecified) | 1.6
CN1Cc2c(C(=O)OC(C)(C)C)ncn2-c2ccsc2C1=O | 0.413
C/C=C/c1ccc(O)cc1C(=O)C(C)O (stereo unspecified) | 0.694 ± 1.1
